The list shows a part of the results.
Each sequence was assayed against OsWRKY34 (Oryza sativa, UniProt Q0JBA9 1-250) (assay: protein-binding microarray (RPBM); PBS, 2% BSA, 51.3 ng/ul salmon testes DNA, 50 uM zinc acetate, 200 nM TF, 25 C, 1 h; high values mean tight binding). Details: protein: recombinant; tags: N-terminal polyhistidine and DsRed monomer fusion (pET32a); label: CyDye5-dUTP incorporated in the synthesized complementary strand; 3' TTTTT single-stranded linker to array surface; dsDNA, one strand shown.
Procedure, shortened: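 The binding signal for each feature is its fluorescence intensity in arbitrary units. An Axon 4000B scanner was used to read a custom Agilent array that had been made double-stranded with Cy5-dUTP primer extension, blocked with 2% BSA, incubated at 25 °C for 1 h with 200 nM protein in PBS, 2% BSA, salmon testes DNA and 50 µM zinc acetate, and washed. The protein was an N-terminal polyhistidine–DsRed transcription factor fusion from E. coli BL21-CodonPlus, purified on Ni–NTA.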

The chains behind the UniProt entries cited, without tags or fusion partners.
UniProt Q0JBA9, entry or part of it: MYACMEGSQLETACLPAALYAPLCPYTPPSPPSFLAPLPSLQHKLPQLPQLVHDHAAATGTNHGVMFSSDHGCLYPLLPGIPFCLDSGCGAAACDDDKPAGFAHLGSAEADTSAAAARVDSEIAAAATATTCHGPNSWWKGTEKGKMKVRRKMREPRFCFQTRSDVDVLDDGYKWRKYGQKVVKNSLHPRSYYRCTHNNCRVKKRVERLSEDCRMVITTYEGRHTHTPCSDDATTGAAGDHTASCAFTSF

Sequence | binding signal
CTTGCTCGGTTTCTTTCTCCCGCGGACACTGAAACCCAACCGGAGTCACCTAGTGCAG | 8520 fluorescence intensity (a.u.)
TTTCCTTGAACCAGCACTGACATTTTACCATGTGTTCATTCGGAGTCACCTAGTGCAG | 10700 fluorescence intensity (a.u.)
ACCGGATCGCATCACACTCGCAGCCAACTCGAAGCAGCAACGGAGTCACCTAGTGCAG | 8140 fluorescence intensity (a.u.)
CGTATTTTGATATATAACGTTGTTTACTTTTTGAGATATACGGAGTCACCTAGTGCAG | 8650 fluorescence intensity (a.u.)
AAGTTTGTTCTTTTTGGAAATACAGTTCCGTATTTAAGTCCGGAGTCACCTAGTGCAG | 8260 fluorescence intensity (a.u.)
TCTTCTCTTCTCTTCTCTTCTCTTCCATCTCCTAATCTTCCGGAGTCACCTAGTGCAG | 8620 fluorescence intensity (a.u.)
TTCTCTCTCTAAAGCTATTTTCTCTCTCTCTCTGTGCTGTCGGAGTCACCTAGTGCAG | 8600 fluorescence intensity (a.u.)
CTATTTTCAGCTATAGTTTTTGTCACCATCTAGTTATTATCGGAGTCACCTAGTGCAG | 10200 fluorescence intensity (a.u.)
TATACCTGCTTTGCTCGTCGCACGTTAGATTATCCCAACTCGGAGTCACCTAGTGCAG | 11000 fluorescence intensity (a.u.)
GTAATTAATCTACCATGGCATTTGGCGCGCCTAGTATTTACGGAGTCACCTAGTGCAG | 10400 fluorescence intensity (a.u.)
GAAGCCTTCATATCAATCTGTCATACACATACAACTTTTCCGGAGTCACCTAGTGCAG | 8380 fluorescence intensity (a.u.)
AGAGTTATATCTCCCACCTCTCCCGCCGCGACCCAAGTCTCGGAGTCACCTAGTGCAG | 9310 fluorescence intensity (a.u.)
TCGTTTCATCCTGCTGTCACCACGTAGTAACTCGTTTTCCCGGAGTCACCTAGTGCAG | 10900 fluorescence intensity (a.u.)
CTCCAACCACCCCTAGACACGTGTCCAGAGAATCTCTAACCGGAGTCACCTAGTGCAG | 8170 fluorescence intensity (a.u.)
TATCTCCAAGGTTTTGGGCTTTGCAATTTTTGGCGGTAACCGGAGTCACCTAGTGCAG | 10200 fluorescence intensity (a.u.)
TCCCGGATGGCTCTCATCGCCGGCTCCTACGAGCGCTTCACGGAGTCACCTAGTGCAG | 9840 fluorescence intensity (a.u.)
TCCCAGCCAGCCGCGGAGCCGCTTCTACTCCCACGCCTCTCGGAGTCACCTAGTGCAG | 10700 fluorescence intensity (a.u.)
TACCTTCCTTAACTATTGCACAGGTTCAAATCGTATCCCTCGGAGTCACCTAGTGCAG | 8730 fluorescence intensity (a.u.)
TGATATACTATCCATCACTGTTAACTGTTCACCATTCATACGGAGTCACCTAGTGCAG | 9170 fluorescence intensity (a.u.)
ATCCTGGTGAGCACATCCTCCGCCACCGCTGCCTGCTCCGCGGAGTCACCTAGTGCAG | 10300 fluorescence intensity (a.u.)
GGCGAGTTCTAAAATTATTTTTTTCATTCGTGTCCGAAAACGGAGTCACCTAGTGCAG | 9110 fluorescence intensity (a.u.)
CCTCCTTGATGAAGTCTGCTCTACTGCTTTCTTTCTTTCTCGGAGTCACCTAGTGCAG | 9190 fluorescence intensity (a.u.)
TTTTTTAATGGCACACCATCTCACCATCTGCCCTTTCTTACGGAGTCACCTAGTGCAG | 8550 fluorescence intensity (a.u.)

Reprinted at random: 2 records from the list.
Sequence | binding signal
TCCCGGATGGCTCTCATCGCCGGCTCCTACGAGCGCTTCACGGAGTCACCTAGTGCAG | 9840 fluorescence intensity (a.u.)
TGATATACTATCCATCACTGTTAACTGTTCACCATTCATACGGAGTCACCTAGTGCAG | 9170 fluorescence intensity (a.u.)

From PMC7819943, “Rice protein-binding microarrays: a tool to detect cis-acting elements near promoter regions in rice”
